Data taken from the supplement of paper PMC10849652.
The other results are listed elsewhere or left out.

Sequences of proteins named here, by UniProt entry; tags and fusion partners are left off. A change or cut given only in a name is not applied to a line headed by its entry.
UniProt Q08495: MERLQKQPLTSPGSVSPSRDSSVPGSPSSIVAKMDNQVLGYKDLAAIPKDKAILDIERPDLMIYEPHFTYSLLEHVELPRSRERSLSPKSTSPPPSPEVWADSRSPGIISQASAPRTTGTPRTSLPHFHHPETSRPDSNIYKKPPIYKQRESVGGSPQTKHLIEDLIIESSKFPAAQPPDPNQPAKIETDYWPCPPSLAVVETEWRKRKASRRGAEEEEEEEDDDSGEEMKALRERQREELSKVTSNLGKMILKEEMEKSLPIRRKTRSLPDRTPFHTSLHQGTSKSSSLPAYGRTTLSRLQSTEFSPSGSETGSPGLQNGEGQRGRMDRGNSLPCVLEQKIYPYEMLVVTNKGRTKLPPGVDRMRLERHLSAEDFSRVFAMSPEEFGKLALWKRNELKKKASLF
UniProt Q9NW81: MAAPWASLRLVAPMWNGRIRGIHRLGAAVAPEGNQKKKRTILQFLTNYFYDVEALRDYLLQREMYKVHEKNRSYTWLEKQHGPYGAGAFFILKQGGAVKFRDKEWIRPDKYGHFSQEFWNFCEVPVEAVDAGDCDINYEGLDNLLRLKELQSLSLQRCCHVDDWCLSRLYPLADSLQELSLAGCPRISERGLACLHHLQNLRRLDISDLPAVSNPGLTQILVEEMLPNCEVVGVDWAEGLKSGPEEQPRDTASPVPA
UniProt Q86YN1: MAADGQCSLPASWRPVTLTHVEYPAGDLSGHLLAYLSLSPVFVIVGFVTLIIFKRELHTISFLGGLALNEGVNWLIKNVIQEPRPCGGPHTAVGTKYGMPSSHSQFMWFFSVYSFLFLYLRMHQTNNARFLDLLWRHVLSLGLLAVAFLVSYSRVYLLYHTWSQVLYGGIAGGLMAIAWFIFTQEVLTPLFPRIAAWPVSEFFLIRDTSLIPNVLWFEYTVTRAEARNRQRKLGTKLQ
UniProt Q9Y394: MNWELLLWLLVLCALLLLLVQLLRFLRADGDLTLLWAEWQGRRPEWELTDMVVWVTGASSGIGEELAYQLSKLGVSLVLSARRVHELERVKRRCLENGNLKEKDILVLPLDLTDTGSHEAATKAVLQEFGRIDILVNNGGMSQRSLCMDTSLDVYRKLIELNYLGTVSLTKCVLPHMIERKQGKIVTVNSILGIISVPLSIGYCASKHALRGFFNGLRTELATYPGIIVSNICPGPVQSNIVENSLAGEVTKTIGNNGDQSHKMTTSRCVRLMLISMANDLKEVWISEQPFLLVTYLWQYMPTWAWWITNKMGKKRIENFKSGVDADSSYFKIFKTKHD
UniProt Q8NF50: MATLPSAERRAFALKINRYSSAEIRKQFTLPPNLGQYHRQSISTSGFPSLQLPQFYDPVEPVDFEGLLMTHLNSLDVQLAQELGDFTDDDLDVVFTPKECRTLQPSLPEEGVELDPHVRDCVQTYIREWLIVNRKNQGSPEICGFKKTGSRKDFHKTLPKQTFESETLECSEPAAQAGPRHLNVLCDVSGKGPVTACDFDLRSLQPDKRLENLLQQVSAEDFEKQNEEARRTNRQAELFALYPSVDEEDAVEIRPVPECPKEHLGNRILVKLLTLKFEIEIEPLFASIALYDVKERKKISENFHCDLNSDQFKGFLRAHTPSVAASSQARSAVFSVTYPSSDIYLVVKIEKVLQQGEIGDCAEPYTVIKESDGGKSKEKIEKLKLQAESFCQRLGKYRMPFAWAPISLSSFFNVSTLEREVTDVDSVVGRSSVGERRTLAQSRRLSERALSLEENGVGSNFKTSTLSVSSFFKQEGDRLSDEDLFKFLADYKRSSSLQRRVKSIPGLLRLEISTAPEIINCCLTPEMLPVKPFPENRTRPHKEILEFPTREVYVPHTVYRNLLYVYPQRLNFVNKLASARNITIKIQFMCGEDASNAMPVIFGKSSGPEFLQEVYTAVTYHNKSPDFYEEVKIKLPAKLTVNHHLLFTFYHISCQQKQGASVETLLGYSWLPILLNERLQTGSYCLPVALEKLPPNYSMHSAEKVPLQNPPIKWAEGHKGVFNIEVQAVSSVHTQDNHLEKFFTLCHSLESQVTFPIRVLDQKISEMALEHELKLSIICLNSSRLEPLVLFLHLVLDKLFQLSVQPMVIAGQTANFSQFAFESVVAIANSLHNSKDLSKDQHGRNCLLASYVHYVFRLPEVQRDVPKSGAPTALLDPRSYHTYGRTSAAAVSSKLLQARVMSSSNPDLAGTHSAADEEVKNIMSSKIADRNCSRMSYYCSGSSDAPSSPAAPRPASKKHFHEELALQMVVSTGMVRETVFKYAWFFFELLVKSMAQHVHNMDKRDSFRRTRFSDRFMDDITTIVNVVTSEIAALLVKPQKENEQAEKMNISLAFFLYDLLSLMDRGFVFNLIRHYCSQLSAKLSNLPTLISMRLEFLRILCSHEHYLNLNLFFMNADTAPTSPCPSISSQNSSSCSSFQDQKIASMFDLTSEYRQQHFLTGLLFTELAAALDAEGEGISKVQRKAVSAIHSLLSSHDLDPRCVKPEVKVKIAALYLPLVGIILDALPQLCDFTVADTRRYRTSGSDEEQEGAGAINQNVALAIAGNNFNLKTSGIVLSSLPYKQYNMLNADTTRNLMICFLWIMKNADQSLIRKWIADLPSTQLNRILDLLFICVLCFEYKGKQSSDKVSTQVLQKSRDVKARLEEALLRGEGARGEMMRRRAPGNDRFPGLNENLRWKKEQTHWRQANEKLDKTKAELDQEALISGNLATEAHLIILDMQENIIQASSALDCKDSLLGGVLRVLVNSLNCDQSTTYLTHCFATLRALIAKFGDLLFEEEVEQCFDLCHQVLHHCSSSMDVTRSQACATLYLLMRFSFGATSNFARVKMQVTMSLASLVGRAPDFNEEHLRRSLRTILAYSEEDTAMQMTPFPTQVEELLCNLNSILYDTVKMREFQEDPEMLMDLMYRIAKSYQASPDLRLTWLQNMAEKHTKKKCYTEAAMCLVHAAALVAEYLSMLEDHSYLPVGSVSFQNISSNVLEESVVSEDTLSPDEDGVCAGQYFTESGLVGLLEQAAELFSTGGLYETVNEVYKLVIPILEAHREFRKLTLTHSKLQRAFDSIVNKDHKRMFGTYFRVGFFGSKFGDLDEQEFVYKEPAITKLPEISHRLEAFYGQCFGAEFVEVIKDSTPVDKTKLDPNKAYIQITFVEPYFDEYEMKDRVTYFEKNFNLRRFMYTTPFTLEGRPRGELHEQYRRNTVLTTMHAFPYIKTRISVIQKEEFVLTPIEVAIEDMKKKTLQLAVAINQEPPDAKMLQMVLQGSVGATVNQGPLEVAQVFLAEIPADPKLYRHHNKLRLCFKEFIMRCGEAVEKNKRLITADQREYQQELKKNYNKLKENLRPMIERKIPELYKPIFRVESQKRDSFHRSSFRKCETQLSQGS
UniProt O75911: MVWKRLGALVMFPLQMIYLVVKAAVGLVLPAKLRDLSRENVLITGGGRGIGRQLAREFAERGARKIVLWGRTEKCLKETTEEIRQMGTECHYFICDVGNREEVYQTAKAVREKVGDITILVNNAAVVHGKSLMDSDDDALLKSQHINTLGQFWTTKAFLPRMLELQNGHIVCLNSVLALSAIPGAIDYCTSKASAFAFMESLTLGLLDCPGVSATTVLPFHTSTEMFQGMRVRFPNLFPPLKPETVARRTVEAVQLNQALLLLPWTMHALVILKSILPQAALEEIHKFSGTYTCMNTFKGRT
UniProt Q86SQ9: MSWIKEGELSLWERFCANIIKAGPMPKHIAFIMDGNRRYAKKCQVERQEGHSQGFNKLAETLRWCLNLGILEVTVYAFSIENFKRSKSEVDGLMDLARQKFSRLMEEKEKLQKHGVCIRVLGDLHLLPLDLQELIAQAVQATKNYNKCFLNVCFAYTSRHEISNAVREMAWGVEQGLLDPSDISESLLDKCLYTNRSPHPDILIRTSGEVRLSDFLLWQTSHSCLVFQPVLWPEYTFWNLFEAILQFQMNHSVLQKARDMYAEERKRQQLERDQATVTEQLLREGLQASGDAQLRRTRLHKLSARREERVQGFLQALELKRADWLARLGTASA
UniProt Q8NDZ4: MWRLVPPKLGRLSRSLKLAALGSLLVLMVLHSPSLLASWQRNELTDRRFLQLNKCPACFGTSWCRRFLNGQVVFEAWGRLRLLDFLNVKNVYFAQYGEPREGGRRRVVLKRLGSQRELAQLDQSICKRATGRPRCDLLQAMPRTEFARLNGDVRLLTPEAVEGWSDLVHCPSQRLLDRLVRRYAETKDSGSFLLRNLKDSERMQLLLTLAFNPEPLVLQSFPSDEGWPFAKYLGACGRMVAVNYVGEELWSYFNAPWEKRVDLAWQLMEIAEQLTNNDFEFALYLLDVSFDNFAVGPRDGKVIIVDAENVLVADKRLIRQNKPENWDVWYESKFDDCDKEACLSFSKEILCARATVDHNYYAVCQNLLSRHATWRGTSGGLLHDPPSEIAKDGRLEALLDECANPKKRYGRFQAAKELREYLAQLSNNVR
UniProt O00429, whole entry, looked up: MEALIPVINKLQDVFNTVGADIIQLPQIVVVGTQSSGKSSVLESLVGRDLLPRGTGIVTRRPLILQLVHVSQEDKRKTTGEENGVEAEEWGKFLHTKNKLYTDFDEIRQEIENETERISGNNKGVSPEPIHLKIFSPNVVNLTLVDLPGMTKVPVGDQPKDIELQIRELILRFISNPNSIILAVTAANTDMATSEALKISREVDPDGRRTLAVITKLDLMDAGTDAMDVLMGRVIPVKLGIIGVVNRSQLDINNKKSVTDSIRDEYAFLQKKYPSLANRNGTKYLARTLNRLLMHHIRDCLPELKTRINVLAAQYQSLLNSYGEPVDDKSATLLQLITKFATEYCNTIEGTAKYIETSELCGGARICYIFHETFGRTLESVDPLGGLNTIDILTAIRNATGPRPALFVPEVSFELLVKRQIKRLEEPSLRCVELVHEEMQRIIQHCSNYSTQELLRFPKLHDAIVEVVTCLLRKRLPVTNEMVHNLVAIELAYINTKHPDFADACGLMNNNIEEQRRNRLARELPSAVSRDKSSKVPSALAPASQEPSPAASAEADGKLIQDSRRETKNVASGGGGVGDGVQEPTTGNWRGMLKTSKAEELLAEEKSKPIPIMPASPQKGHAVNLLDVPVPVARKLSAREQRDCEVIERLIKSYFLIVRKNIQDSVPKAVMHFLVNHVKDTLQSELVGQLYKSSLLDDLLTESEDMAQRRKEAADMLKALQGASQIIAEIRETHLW
UniProt Q6UWP2: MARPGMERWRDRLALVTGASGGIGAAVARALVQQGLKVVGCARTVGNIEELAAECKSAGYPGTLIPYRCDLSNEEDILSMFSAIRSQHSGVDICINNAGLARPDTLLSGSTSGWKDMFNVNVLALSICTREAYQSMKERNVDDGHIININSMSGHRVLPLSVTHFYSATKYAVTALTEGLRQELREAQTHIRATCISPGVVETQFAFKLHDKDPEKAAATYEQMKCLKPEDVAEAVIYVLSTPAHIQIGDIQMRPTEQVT
UniProt Q8TBM8: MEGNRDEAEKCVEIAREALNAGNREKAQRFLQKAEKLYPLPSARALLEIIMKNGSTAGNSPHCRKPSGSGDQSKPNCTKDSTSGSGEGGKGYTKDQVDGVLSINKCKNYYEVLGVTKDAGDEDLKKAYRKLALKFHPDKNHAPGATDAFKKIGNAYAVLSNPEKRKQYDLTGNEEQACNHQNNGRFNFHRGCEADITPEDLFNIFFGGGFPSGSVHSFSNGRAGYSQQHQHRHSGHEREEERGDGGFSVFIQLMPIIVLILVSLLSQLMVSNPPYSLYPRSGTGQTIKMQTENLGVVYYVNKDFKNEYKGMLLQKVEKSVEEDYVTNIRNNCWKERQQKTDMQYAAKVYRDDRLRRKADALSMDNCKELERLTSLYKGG
UniProt Q8IX18: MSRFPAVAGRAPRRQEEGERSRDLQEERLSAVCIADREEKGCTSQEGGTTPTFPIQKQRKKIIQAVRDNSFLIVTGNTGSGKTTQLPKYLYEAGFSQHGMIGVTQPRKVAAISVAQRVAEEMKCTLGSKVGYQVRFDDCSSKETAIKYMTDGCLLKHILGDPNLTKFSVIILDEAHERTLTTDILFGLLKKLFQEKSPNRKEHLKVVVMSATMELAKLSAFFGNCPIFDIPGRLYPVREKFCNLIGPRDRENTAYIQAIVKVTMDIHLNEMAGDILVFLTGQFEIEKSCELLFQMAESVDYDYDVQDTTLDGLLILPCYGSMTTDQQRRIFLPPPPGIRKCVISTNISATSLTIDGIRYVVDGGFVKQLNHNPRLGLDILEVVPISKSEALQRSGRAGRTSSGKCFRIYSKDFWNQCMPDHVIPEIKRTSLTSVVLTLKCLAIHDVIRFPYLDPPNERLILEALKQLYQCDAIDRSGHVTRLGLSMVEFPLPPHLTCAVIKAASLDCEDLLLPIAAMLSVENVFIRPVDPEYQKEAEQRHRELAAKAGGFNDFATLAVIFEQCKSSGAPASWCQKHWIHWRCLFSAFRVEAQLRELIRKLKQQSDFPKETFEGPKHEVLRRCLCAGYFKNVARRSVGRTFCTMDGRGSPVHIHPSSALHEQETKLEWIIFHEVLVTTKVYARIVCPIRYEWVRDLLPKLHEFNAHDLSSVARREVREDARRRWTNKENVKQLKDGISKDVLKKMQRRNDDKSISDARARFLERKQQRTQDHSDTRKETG

Key:
Assay in all cases: log2 fold change, soluble protein after heating vs DMSO (PISA); higher = thermal stabilisation; K562 lysate, 10 uM; active = over 0.2 and 3.5 SD of the protein, either way, in both replicates (recomputed)
[1] = compound: NCC(=O)Nc1ccc(-n2nc(C(F)(F)F)cc2-c2ccc3c(ccc4ccccc43)c2)cc1
Summary of the method: (§1)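 The values are log-two fold changes in thermal stability compared with solvent controls and come from duplicates. They were obtained by TMTpro 16plex LC-MS/MS, with channel sums equalised, on the supernatant after 21,000xg for 90 min. That supernatant came from crude K562 extract at 1 mg/mL protein treated with 10 μM compound for 30 min, heated for 3 min across 48°C-58°C, pooled and brought to 0.5% NP-40 at 4°C.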

vorinostat = compound: O=C(CCCCCCC(=O)Nc1ccccc1)NO [vorinostat]
Summary of the method: as §1

silmitasertib = compound: O=C(O)c1ccc2c(c1)nc(Nc1cccc(Cl)c1)c1ccncc12 [silmitasertib]
Summary of the method: as §1

[2] = compound: O=C1NC(=O)C(c2cnc3ccccn23)=C1c1cn2c3c(cc(F)cc13)CN(C(=O)N1CCCCC1)CC2
Summary of the method: as §1

entospletinib = compound: c1cn2cc(-c3ccc4cn[nH]c4c3)nc(Nc3ccc(N4CCOCC4)cc3)c2n1 [entospletinib]
Summary of the method: as §1

| Target | log2 fold change [1] | log2 fold change (vorinostat) | log2 fold change (silmitasertib) | log2 fold change [2] | log2 fold change (entospletinib) |
| --- | --- | --- | --- | --- | --- |
| DNAJC6 isoform 2 (UniProt O75061) | inactive: -0.003 | inactive: 0.029 | inactive: -0.04 | inactive: -0.023 | inactive: 0.005 |
| DMTN isoform 2 (UniProt Q08495) | inactive: -0.06 | inactive: 0.111 | inactive: 0.003 | inactive: 0.042 | inactive: -0.052 |
| DLAT (UniProt P10515) | inactive: 0.009 | inactive: 0 | inactive: -0.014 | inactive: 0.004 | inactive: -0.008 |
| DMAC2 isoform 4 (UniProt Q9NW81) | inactive: -0.01 | inactive: 0.157 | inactive: -0.032 | inactive: 0.182 | inactive: 0.073 |
| DOLPP1 (UniProt Q86YN1) | inactive: 0.021 | inactive: 0.054 | inactive: 0.058 | inactive: 0.072 | inactive: 0.018 |
| DKC1 (UniProt O60832) | inactive: 0.023 | inactive: 0.133 | inactive: -0.019 | inactive: 0.014 | inactive: 0.002 |
| DNAH9 (UniProt Q9NYC9) | inactive: 0.024 | inactive: 0.052 | inactive: -0.053 | inactive: 0.035 | inactive: 0.077 |
| DHRS7 (UniProt Q9Y394) | inactive: 0.027 | inactive: 0.083 | inactive: 0.015 | inactive: -0.018 | inactive: 0.025 |
| DIMT1 (UniProt Q9UNQ2) | inactive: 0.003 | inactive: 0.072 | inactive: 0.015 | inactive: -0.028 | inactive: -0.004 |
| DOCK8 (UniProt Q8NF50) | inactive: -0.015 | active: -0.489 | inactive: 0.06 | inactive: 0.022 | inactive: -0.052 |
| DHRS3 (UniProt O75911) | inactive: 0.032 | inactive: -0.055 | inactive: -0.062 | inactive: 0.025 | inactive: 0.096 |
| DHDDS isoform 2 (UniProt Q86SQ9) | inactive: -0.004 | inactive: -0.026 | inactive: 0.027 | inactive: 0.105 | inactive: 0.005 |
| DIPK2A (UniProt Q8NDZ4) | inactive: -0.129 | inactive: 0.148 | inactive: 0.14 | inactive: -0.094 | inactive: 0 |
| DHX37 (UniProt Q8IY37) | inactive: 0.067 | inactive: -0.121 | inactive: 0.063 | inactive: -0.002 | inactive: 0.063 |
| DOCK9 isoform 4 (UniProt Q9BZ29) | inactive: 0.025 | inactive: -0.161 | inactive: -0.022 | inactive: 0.012 | inactive: -0.041 |
| DHCR24 (UniProt Q15392) | inactive: 0.009 | inactive: 0.098 | inactive: -0.011 | inactive: -0.054 | inactive: -0.064 |
| DNM1L isoform 6 (UniProt O00429) | inactive: 0.018 | inactive: -0.048 | inactive: 0.019 | inactive: 0.002 | inactive: 0.015 |
| DHX57 (UniProt Q6P158) | inactive: -0.013 | inactive: -0.013 | inactive: -0.002 | inactive: 0.005 | inactive: -0.047 |
| DIAPH1 (UniProt H9KV28) | inactive: -0.002 | inactive: 0.087 | inactive: 0.084 | inactive: -0.083 | inactive: -0.113 |
| DHRS11 (UniProt Q6UWP2) | inactive: -0.006 | active: -0.255 | inactive: -0.014 | inactive: 0.02 | inactive: -0.011 |
| DIP2B (UniProt Q9P265) | inactive: 0.011 | inactive: 0.054 | inactive: -0.014 | inactive: -0.006 | inactive: 0.001 |
| DNAJB14 (UniProt Q8TBM8) | inactive: -0.017 | inactive: 0.039 | inactive: -0.015 | inactive: 0.048 | inactive: 0.035 |
| DHX40 (UniProt Q8IX18) | inactive: -0.052 | inactive: -0.063 | inactive: 0.059 | inactive: -0.039 | inactive: -0.001 |
| DHX16 (UniProt O60231) | inactive: -0.006 | inactive: 0.043 | inactive: -0.004 | inactive: -0.01 | inactive: 0.052 |

2 entries from above, with bars between the fields.
Target | log2 fold change [1] | log2 fold change (vorinostat) | log2 fold change (silmitasertib) | log2 fold change [2] | log2 fold change (entospletinib)
DHDDS isoform 2 (UniProt Q86SQ9) | inactive: -0.004 | inactive: -0.026 | inactive: 0.027 | inactive: 0.105 | inactive: 0.005
DIPK2A (UniProt Q8NDZ4) | inactive: -0.129 | inactive: 0.148 | inactive: 0.14 | inactive: -0.094 | inactive: 0
